# Assay results reported in publication PMC10901513.
# By UniProt entry, the sequences of proteins in these tests, tags left out. Where a name states a change or a piece, a line headed by the entry shows the natural chain unless it says otherwise.
# UniProt Q61188: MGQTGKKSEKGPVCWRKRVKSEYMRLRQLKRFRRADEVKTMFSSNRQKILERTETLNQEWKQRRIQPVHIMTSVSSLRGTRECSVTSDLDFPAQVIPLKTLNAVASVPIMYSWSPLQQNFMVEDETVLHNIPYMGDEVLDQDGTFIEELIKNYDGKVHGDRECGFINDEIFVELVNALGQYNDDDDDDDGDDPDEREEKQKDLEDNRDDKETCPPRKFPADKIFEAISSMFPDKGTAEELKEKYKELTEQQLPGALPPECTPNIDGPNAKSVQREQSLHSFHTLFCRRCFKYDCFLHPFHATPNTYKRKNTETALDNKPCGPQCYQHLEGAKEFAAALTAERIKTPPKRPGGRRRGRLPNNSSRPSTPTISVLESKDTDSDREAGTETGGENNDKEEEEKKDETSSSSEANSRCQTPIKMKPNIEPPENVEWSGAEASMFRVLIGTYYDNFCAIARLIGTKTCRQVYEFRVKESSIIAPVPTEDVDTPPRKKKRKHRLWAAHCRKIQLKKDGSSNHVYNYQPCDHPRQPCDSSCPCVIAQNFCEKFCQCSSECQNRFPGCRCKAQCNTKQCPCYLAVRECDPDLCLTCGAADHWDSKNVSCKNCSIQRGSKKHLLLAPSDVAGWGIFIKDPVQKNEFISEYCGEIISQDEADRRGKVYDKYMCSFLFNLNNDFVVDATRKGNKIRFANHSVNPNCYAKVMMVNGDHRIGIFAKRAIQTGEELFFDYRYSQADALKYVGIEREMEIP
# UniProt Q921E6: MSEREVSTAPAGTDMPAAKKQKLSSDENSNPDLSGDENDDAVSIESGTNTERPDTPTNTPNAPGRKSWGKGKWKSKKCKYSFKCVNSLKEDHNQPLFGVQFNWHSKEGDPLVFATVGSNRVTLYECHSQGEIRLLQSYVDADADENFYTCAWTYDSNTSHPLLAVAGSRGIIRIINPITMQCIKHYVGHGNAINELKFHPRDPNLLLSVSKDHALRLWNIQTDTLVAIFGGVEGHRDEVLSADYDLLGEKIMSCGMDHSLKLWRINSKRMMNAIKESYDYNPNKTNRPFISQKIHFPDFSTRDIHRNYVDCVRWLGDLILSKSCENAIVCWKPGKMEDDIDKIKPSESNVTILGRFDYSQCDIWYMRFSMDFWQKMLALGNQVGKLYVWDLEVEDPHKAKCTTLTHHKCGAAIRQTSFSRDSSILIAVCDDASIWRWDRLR
# UniProt Q80U70: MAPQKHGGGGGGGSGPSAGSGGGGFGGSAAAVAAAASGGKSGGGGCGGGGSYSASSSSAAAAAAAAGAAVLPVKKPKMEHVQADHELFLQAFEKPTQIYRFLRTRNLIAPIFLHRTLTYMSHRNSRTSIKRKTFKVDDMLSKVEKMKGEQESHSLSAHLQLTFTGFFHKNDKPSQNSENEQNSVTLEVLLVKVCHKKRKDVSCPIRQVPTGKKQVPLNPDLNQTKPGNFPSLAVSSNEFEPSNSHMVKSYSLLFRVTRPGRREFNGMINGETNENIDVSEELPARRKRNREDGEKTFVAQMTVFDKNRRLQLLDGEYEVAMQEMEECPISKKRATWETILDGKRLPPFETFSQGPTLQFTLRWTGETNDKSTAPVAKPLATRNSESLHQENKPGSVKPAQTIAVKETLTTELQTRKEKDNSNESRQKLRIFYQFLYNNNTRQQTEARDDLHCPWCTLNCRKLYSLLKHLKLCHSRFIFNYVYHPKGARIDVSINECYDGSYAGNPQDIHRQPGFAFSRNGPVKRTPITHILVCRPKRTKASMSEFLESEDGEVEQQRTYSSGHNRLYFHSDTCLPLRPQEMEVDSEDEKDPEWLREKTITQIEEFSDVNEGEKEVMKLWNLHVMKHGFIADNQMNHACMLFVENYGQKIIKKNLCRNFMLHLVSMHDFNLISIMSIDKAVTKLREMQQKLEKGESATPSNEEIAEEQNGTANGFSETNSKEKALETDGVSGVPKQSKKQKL
# No constants are given. Whether binding was seen depends on the method and setting. In cells and extracts the contact can be indirect. Some binding calls cover weakened binding; strength is not graded here.
# How the values were obtained:
# [1] = target: EZH2 (enhancer of Zeste homolog 2), mouse, wild type (mouse (endogenous in mouse embryos and MEFs)) (UniProt Q61188); assay: co-IP; lysates of primary Ezh2 wild-type and K20R mutant MEFs immunoprecipitated with anti-EZH2, blotted for histone H3, SUZ12 and EED; K20R MEFs also with or without MK2206 (2 uM, 4 hr)
# [2] = target: EZH2 K20R mutant, mouse (knock-in) (mouse (endogenous in MEFs)) (UniProt Q61188); assay: as above
# [3] = target: T1, L3MBTL3, human, endogenous (human (endogenous in 293T)) (UniProt Q96JM7); assay: co-IP; 293T cells transfected with SET7 wild type, SET7 H297A or empty vector for 48 hr (MG132 5 ug/ml for the last 6 hr in Figure 4H); endogenous proteins; lysates immunoprecipitated with anti-L3MBTL3, blotted for EZH2, EZH2-K20me and L3MBTL3
# T1 sequence: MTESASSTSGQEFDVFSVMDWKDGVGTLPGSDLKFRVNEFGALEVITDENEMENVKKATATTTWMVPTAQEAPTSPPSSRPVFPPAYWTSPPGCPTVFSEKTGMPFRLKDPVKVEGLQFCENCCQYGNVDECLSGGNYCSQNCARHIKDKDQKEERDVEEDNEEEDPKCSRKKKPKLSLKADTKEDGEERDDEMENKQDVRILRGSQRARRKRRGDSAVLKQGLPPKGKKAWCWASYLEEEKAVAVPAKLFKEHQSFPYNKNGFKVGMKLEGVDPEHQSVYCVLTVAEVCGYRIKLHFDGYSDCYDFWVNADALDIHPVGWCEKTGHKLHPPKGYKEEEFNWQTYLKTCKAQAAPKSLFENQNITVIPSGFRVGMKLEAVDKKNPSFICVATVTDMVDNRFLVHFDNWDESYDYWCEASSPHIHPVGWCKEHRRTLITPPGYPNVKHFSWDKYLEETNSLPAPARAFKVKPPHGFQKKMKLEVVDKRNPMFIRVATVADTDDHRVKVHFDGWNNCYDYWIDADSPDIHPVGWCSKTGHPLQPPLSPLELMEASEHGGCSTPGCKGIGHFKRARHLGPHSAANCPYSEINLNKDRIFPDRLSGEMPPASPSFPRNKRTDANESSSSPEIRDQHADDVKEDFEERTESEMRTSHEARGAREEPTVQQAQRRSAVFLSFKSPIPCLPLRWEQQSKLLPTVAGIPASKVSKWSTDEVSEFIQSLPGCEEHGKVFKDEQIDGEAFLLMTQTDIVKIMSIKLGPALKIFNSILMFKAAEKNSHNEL
# [4] = target: T2, L3MBTL3, mouse (mouse (endogenous in mouse embryos)) (UniProt Q8BLB7); assay: co-IP; lysates of mouse embryos (E14.5), endogenous proteins; input 1/10 of the lysates; NP40 lysis buffer (0.5% NP40, 50 mM Tris pH 7.5, 150 mM NaCl), Protein A-Sepharose
# T2 sequence: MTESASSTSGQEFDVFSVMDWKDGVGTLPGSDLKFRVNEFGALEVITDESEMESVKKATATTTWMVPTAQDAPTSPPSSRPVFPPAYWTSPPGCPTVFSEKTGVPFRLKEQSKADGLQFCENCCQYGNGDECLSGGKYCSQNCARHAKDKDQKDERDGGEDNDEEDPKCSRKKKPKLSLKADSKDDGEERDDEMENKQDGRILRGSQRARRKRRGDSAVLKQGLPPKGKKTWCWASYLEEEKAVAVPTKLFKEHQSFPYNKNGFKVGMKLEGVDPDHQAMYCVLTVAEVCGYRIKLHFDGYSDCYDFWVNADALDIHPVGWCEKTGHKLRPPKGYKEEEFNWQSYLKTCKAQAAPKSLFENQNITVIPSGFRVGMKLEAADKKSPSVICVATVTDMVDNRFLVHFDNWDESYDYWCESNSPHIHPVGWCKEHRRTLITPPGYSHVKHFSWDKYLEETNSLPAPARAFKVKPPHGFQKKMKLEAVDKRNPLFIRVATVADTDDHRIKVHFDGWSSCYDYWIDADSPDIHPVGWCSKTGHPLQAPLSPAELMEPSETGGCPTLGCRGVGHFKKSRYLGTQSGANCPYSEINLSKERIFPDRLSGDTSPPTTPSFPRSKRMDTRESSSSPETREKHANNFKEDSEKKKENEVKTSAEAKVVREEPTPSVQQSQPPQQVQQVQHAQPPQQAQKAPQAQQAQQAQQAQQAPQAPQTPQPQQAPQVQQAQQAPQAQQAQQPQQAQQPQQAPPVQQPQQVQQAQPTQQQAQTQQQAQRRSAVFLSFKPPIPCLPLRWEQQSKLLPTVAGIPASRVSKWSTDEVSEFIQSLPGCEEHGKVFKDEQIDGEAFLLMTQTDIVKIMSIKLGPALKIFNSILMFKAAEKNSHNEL
Substance,binding [2],binding [3],also measured
"EED (embryonic ectoderm development), mouse (from UniProt Q921E6 1-441)",binds,,binding [1]: binds
"EZH2 (enhancer of Zeste homolog 2), human, endogenous (from UniProt Q15910-1 1-746)",,binds,
"EZH2 (enhancer of Zeste homolog 2), mouse, wild type (from UniProt Q61188 1-746)",,,binding [4]: binds

# Continued, in another order:
binding [2],binding [3],Substance,also measured
,binds,"K20-methylated EZH2, human, endogenous (from UniProt Q15910-1 1-746)",
binds,,"SUZ12 (suppress of Zeste 12), mouse (from UniProt Q80U70 1-741)",
